Reference: patent US10265288B2, “Methods and compositions for the treatment of proliferative disorders” (Beth Israel Deaconess Medical Center, Inc., priority 2011, dated 2019)
For at least one compound, name, drawing or mass did not settle the structure. Where a SMILES comes first, the peptide text is derived from it. [ ]: non-standard residue; d: D form. pT = C[C@@H](OP(=O)(O)O)[C@H](N)C(=O)O; 2Nal = N[C@@H](Cc1ccc2ccccc2c1)C(=O)O; Bta = N[C@@H](Cc1csc2ccccc12)C(=O)O; Pip = O=C(O)[C@@H]1CCCCN1

By UniProt entry, the sequences of proteins in these tests, tags left out.
UniProt Q13526, whole entry: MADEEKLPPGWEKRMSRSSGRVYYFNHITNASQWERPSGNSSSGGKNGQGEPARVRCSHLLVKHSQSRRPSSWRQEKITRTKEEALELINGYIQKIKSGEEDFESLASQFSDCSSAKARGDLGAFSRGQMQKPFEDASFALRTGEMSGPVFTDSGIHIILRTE

Molecular target: T1, Pin1 (Homo sapiens, UniProt Q13526)
T1 construct: We performed FP-HTS in a 384-well plate format with full length Pin1
Experiment: single-step fluorescence polarization-based displacement assay (FP-HTS)
Assay type: binding
Settings: read-out: Kd for pTide; displacement of HF488 probe; similar to PPIase-based assays
Description: We used the FP-HTS with a 5 nM probe and 200 nM Pin1 to conduct a pilot screen on a selected set of chemical libraries.

**Q.** How did the Kd turn out when `C[C@@H](OP(=O)(O)O)[C@H](NC(=O)[C@@H](N)Cc1csc2ccccc12)C(=O)N1CCCC[C@H]1C(=O)N[C@@H](Cc1ccc2ccccc2c1)C(=O)O` [pTide, Bth-L-phos.Thr-Pip-Nal] (H-[Bta][pT][Pip][2Nal]-OH; N-terminus and C-terminus assumed) was run?
**A.** ~250 nM
